SMILES strings stand for the structures. Where a name gives a salt, the structure may show the parent alone. This is one part of the list. This is a noisy data set.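 Yeast growth was read as optical density at 600 nm. The two-hybrid strains grew without histidine, so growth needed the Pex3–Pex19 binding; a compound counted as trypanosome-selective if it cut growth of the trypanosome-pair strain by more than 65% and the human-pair strain by less than 65%.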

The test system of this test is T. brucei Pex3-Pex19 interaction (yeast two-hybrid). Nature of the test: growth inhibition of yeast two-hybrid strain reporting TbPex3-TbPex19 interaction, relative to DMSO; higher = stronger inhibition of T. brucei Pex3-Pex19 interaction / growth. To be noted: 100 µM; 24 h.
`NCCS(=O)O` [Hypotaurine] showed a growth inhibition of 51.2%.

Take `NC(C(=O)O)C(O)C(=O)O` (racemic) [DL-threo-beta-hydroxyaspartic acid]: the growth inhibition stood at 54.6%.

The molecule `CC1=C(CC(=O)O)c2cc(F)ccc2/C1=C\c1ccc(S(C)(=O)=O)cc1` [Sulindac sulfone] had a growth inhibition of 40.4%.

Regarding `Cc1cnc(NC(=O)C2=C(O)c3ccccc3S(=O)(=O)N2C)s1` [Meloxicam sodium], the growth inhibition is 57.7%.

In turn, `CCN1CCCC1CNC(=O)c1cc(S(=O)(=O)CC)c(N)cc1OC` (stereo not given) [Amisulpride] displayed a growth inhibition of 62.8%.

On to `C=C(C)[C@@H]1CC=C(C(=O)O)CC1` [(-)-Perillic acid], for which the growth inhibition was found to be 77.8%.

The molecule `CN1CCN(C2=Nc3cc(Cl)ccc3Nc3ccccc32)CC1` [Clozapine] showed a growth inhibition of 64.6%.

On to `C[C@]12C[C@H](O)[C@H]3[C@@H](CCC4=CC(=O)CC[C@@]43C)[C@@H]1CC[C@@H]2C(=O)CO` [Corticosterone], for which the growth inhibition came to 53.3%.

Take `O=c1c(O)c(-c2cc(O)c(O)c(O)c2)oc2cc(O)cc(O)c12` [Myricetin]: the growth inhibition was determined as 62.1%.

As for `O=C(CCCN1CC=C(n2c(=O)[nH]c3ccccc32)CC1)c1ccc(F)cc1` [Droperidol], the growth inhibition amounted to 64.6%.

For the molecule `COc1ccccc1CNC1CCCNC1c1ccccc1` (stereo not given), the growth inhibition was 62.6%.

The molecule `C[C@](N)(Cc1ccc(O)cc1)C(=O)O` [L-alpha-Methyl-p-tyrosine] gave a growth inhibition of 61.1%.

As to `COC1(C2=NCCN2)COc2ccccc2O1` (stereo not given), the growth inhibition amounted to 60.8%.

`CCn1cc(C(=O)O)c(=O)c2cc(F)c(N3CCNC(C)C3)c(F)c21` (stereo not given) [Lomefloxacin hydrochloride] had a growth inhibition of 68.9%.

Consider `Cc1cccc(C)c1OCC(C)N` (stereo not given) [Mexiletene hydrochloride], for which the growth inhibition is 64.2%.

Consider `O=C(O)c1cc2cc(Cc3cccnc3)ccc2o1` [Furegrelate sodium], for which the growth inhibition worked out at 57%.

As to `N[C@@H](Cc1ccc(F)cc1)C(=O)O` [p-Fluoro-L-phenylalanine], the growth inhibition came out at 55.1%.

On to `Cc1cccc(C)c1NC(=O)C(C)N` (stereo not given) [Tocainide hydrochloride], for which the growth inhibition was 61.1%.

`Clc1ccc2nsnc2c1NC1=NCCN1` [Tizanidine hydrochloride] came in with a growth inhibition of 56.2%.

`Cc1ccc(-c2cc(C(F)(F)F)nn2-c2ccc(S(N)(=O)=O)cc2)cc1` [Celecoxib] came in with a growth inhibition of 18%.

With `C[C@@H](N)[C@H]1CC[C@H](C(=O)Nc2ccncc2)CC1`, the growth inhibition is 58.5%.

In turn, `COc1ccccc1CNCCCCCCNCCCCCCCCNCCCCCCNCc1ccccc1OC` [Methoctramine tetrahydrochloride] registered a growth inhibition of 55.5%.

`NCC=CC(=O)O` (stereo in doubt) [cis-4-Aminocrotonic acid] came in with a growth inhibition of 60.9%.

On to `O=[N+]([O-])c1cc2nc(O)c(O)nc2cc1[N+](=O)[O-]`, for which the growth inhibition was determined as 64.7%.

In turn, `Nc1ccc(-c2ccc3ccccc3n2)cc1` [BF-170 hydrochloride] displayed a growth inhibition of 55.1%.
